Results taken from patent US20100120843A1, “PHARMACEUTICAL COMPOSITION FOR TREATING ALCOHOL-INDUCED LIVER INJURY COMPRISING (4S,5S)-5-FLUOROMETHYL-5-HYDROXY-4-(AMINO)-DIHYDROFURAN-2-ONE OR PHARMACEUTICALLY ACCEPTABLE SALT THEREOF” (LG Life Sciences Ltd., priority 2008, published 2010).

Assay: Measurement of change of body weight and liver mass after 12 weeks' diet
Assay type: in vivo, rat
Conditions: male Sprague-Dawley rats
[1] = Control diet with CF1, 10 mg/kg daily oral gavage
[2] = EtOH diet (6% ethanol) with CF1, 10 mg/kg daily oral gavage

Q: With `CC(C)[C@@]1(C(=O)N[C@H]2CC(=O)O[C@]2(O)CF)CC(c2nccc3ccccc23)=NO1` [CF1, (4S,5S)-5-fluoromethyl-5-hydroxy-4-({[(5R)-5-isopropyl-3-(isoquinolin-1-yl)-4,5-dihydro-5-isoxazolyl]carbonyl}amino)-dihydrofuran-2-one] as the molecule, how does the “Body Weight” value [1] read?
A: 400.0 ± 20.00 g

Q: What about the “Liver Mass” value [1] of the same molecule?
A: 10.37 ± 1.10 g

Q: And the “Body Weight” value [2]?
A: 372.5 ± 17.08 g

Q: What about the “Liver Mass” value [2] of the same molecule?
A: 11.36 ± 0.87 g
